The source of these data is PubChem BioAssay (EPA / NIEHS).

This list holds what a sample rich in hits left over. Results filed as inconclusive are left out. The source made the active and inactive calls. The calls were made as follows: active = hit-call score of the fitted dose curve at least 0.9, where 1 is the maximum; inconclusive = response in the unintended direction; inactive = score below 0.9.

This test in a line: ACEA_AR_antagonist_AUC_viability: ACEA Biosciences xCELLigence Real-Time Cell Analysis on Androgen Receptor Antagonism for Viability (AID 2283776).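 Also: 22Rv1 human prostate cancer cells growing on impedance electrode plates; hits lower the growth signal relative to DMSO meaning cytotoxicity.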 The method, boiled down:
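Impedance read-out (RT-CES): area under growth curve at 80 h post-dose, loss of signal scored vs DMSO baseline. 22Rv1 cells; 8-pt 1:4 series, top 100 uM final, ≤0.5% DMSO; biological duplicate.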
In the case of `CC1CCCC1.[C-]#[O+].[C-]#[O+].[C-]#[O+].[Mn]`, the outcome was inactive.
Under `O=C(O)COc1ccc(Cl)cc1` stands “inactive”; under `C=CCN=C=S`, “inactive”.
The result for `CCOP(=O)(OCC)OCC` reads “inactive”; that for `Fc1ccc(C2(Cn3cncn3)OC2c2ccccc2Cl)cc1` (stereo not given), “inactive”; that for `CCOC(=O)COc1ccc(Cl)cc1Cl`, “inactive”.
The result for `COc1ccc(C=O)cc1OC` reads “inactive”.
In the case of `CCC[CH2][Sn]([Cl])([Cl])[Cl]`, the result was inactive.
The result for `CCCCOCCOC(C)=O` reads “inactive”.
Consider `CCOC(=O)c1ccccc1N`, for which the compound was called inactive.
`O=S(=O)(c1ccc(O)cc1)c1ccc(O)cc1`: the outcome was inactive.
The result for `OCC(O)CCl` (stereo not given) reads “inactive”; that for `CC(O)CN(CC(C)O)CC(C)O` (stereo not given), “inactive”; that for `CC(C)OC(=O)Nc1ccccc1`, “inactive”.
The result for `COc1cc(OC)nc(NC(=O)NS(=O)(=O)c2ncccc2C(=O)N(C)C)n1` reads “inactive”.
